The record followed here is PMC3878228 (BMC Plant Biology, 2013).

Series [1] has as its system enzymes secreted from intact Arabidopsis seedlings. Nature of the series: In vitro cleavage assay with Ler seedlings, MALDI-Tof MS. As to conditions: for Internal cleavage after incubation with Ler seedlings / Removal of terminal residues after incubation with Ler seedlings: 10 μM peptide, 5 seedlings in 200 μL medium, 22°C, 3-d incubation, MALDI-Tof MS.
The test system of series [2] is enzymes released by Arabidopsis seedlings. Nature of the series: In vitro cleavage assay of fusion proteins with seedlings, Q-Tof MS/MS.

In the case of “EELRTVPSGPDPLHH [EEL-CLV3p15, CLV3p12 with additional 3 N-terminal residues]”, in series [1], the “Internal cleavage after incubation with Ler seedlings” value (“Internal cleavage after incubation” below) is given as “No internal cleavages” and the “Removal of terminal residues after incubation with Ler seedlings” value (“Removal of terminal residues” below) was “removal of the C-terminal His residue was observed, but not N-terminal residues”.
Consider “FNESMRLSPGGPDPRHH [FNESM-CLE1p17, synthesized CLE1 peptide with 5 N-terminal flanking residues]”, for which, in series [1], the “Internal cleavage after incubation” value was “an internal cleavage was detected between Met (M) and Arg (R)”.
For “LHEELRTVPSGPDPLHH [LHEEL-CLV3p17, CLV3p12 with additional 5 N-terminal residues]”, in series [1], the “Internal cleavage after incubation” value was “cleavages before Arg70 and Thr71”; the “Removal of terminal residues” value is given as “gradual removal of terminal residues”.
For the molecule “MRLSPGGPDPRHH [M-CLE1p13, synthesized CLE1 peptide with 1 N-terminal flanking residue]”, in series [1], the “Removal of terminal residues” value is “gradual trimmings of terminal residues”.
On to “RLSPGGPDPRHH [CLE1p12, synthesized CLE1 peptide with 0 N-terminal flanking residues]”, for which the “Removal of terminal residues” value in series [1] is recorded as “gradual trimmings of terminal residues”.
In the case of “RTVPSGPDPLHH [CLV3p12, chemically synthesized 12-AA CLV3 peptide corresponding to the CLE motif]”, in series [1], the “Internal cleavage after incubation” value is listed as “No internal cleavages”; the “Removal of terminal residues” value was “gradual removal of residues from both N- and C-termini”.

B1: TH-ProCLV3: CLV3 proprotein without signal peptide, N-terminal Trx and His tags, produced in E. coli, 23.8 kD (protein, UniProt Q9XF04 22-96, looked up)
pro-form: SDLTQAHAHVQGLSNRKMMMMKMESEWVGANGEAEKAKTKGLGLHEELRTVPSGPDPLHHHVNPPRQPRNNFQLP
modifications: pro-form N-terminal thioredoxin and His tags
notes: CLV3 proprotein without signal peptide, N-terminal Trx and His tags, produced in E. coli, 23.8 kD
Take B1: in series [1] (10 μM fusion protein, 24 hr, releasing CLV3p12 and CLV3p13), the “Cleavage of fusion protein after inoculation with Arabidopsis seedlings” value is recorded as “efficiently cleaved”. Further, the “Internal cleavage sites of the fusion protein” value in series [2] (co-cultivation with Ler seedlings, 24 hr, Q-Tof MS/MS, SEQUEST) is “before Met39 and before Arg70”.

B2: TH-ProCLV3Leu69Ala: TH-ProCLV3 fusion protein with Leu69Ala substitution, produced in E. coli (protein, UniProt Q9XF04 22-96, looked up, variant L69A)
pro-form: SDLTQAHAHVQGLSNRKMMMMKMESEWVGANGEAEKAKTKGLGLHEEARTVPSGPDPLHHHVNPPRQPRNNFQLP
modifications: pro-form N-terminal thioredoxin and His tags
notes: TH-ProCLV3 fusion protein with Leu69Ala substitution, produced in E. coli
As to B2, the “Peptide fragment profile released from fusion protein” value in series [2] (co-cultivation with wildtype seedlings, Q-Tof MS/MS of medium samples) is recorded as “no peptide fragment with C-terminal Ala69 was detected”.
